Experimental data reported in PMC5955987.
Results are given in words; binding and its absence hold for the method and conditions named. Some binding calls cover weakened binding; strength is not graded here.

Molecular target: Fur, ferric uptake regulator of Acinetobacter baumannii (Acinetobacter baumannii) (UniProt Q9ZAJ4)
Assay: two-hybrid; yeast MaV203, Gal4 DB and AD fusions; 0.75 mM FeCl3 in the growth medium; under all conditions tested

- binding: binds
B1: Fur, ferric uptake regulator of Acinetobacter baumannii (protein, UniProt Q9ZAJ4 1-145)
chain: MPISNQDLRKAGLKVTLPRIKILELLENSKQHHLSAEDIYKTLLEQGEDVGLATVYRVLTQFEAAGIIQRHHFENNHSVFEIMQEDHHDHLVCQNCNKVIEFTNDVIEKEQHSVAEQHGFTLTGHSLNLYGYCNEPECQEALRKK
